The structures given here were assigned with low confidence; some may be wrong.
Target: recombinant human PDK1 (Homo sapiens, UniProt O15530)
Conditions: Table 10; compounds 97-132

By UniProt entry, the sequences of proteins in these tests, tags left out. Residues count along the entry.
UniProt O15530, 51-556 limits assumed: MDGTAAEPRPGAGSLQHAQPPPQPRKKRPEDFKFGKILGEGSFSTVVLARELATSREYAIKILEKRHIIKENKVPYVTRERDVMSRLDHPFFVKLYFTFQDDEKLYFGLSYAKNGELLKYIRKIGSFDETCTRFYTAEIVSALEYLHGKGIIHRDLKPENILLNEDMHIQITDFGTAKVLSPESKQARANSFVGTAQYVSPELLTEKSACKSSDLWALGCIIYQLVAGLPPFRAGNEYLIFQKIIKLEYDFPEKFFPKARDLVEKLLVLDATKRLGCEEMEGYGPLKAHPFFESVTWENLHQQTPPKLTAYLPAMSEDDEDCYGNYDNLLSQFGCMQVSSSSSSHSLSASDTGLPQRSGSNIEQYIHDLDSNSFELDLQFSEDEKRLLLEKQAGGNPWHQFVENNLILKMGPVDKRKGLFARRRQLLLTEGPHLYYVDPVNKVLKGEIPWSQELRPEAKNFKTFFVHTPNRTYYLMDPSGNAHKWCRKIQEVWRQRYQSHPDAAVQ

IC50: 1 to 50 nM
SMILES: CNc1nc(-c2c[nH]c(C(=O)Nc3cccc(F)c3N3CCC(CN)CC3)n2)cc(N2C[C@@H](C(=O)NC3CCCCC3)CC[C@H]2C)n1 (relative stereo)
